Laboratory results published in patent publication US20220313710A1, “COMPOSITIONS AND METHODS USING NON-STEROIDAL ANTI-INFLAMMATORY DRUGS” (APPLIED BIOLOGICAL LABORATORIES, INC., priority 2019, published 2022).
For at least one compound, name, drawing or mass did not settle the structure. Peptide text beside a SMILES is read from it.

Columns and labels:
[1] = system: 3D model of human airway epithelium; experiment: Prostaglandin E2 ELISA on basal medium of bradykinin-stimulated 3D airway epithelia (MucilAir, MatTek); format: cell-based; details: increasing bradykinin concentrations, MatTek and MucilAir ex-vivo models (FIGS. 6A, 7A)
Experimental: (§1) Various compositions were tested for their ability to protect a 3D model of human airway epithelium, constituted with primary human epithelial cells freshly isolated from nasal (MucilAir™ nasal pool), or tracheal or bronchial biopsies (MatTek PE-200-6.5). MucilAir™ and MatTek tissues are reconstituted human 3D tissue from airways and lung surgical pieces, fully differentiated, pseudostratified in vitro epithelium. MucilAir™_Pool is of nasal polyp origin and reconstituted with a mixture of cells isolated from 14 different donors. […] MatTek tissues are from tracheo-bronchial origin. The respiratory epithelium lining the nose and throat have very similar histology and architecture. […]
(§2) Four hours following bradykinin application various measurements of the inflammatory response were measured. […]
(§3) Prostaglandin E2 or IL-8 enzyme-linked immunosorbent assays (ELISA) were performed on the liquid aliquots from the basal medium to determine the amount of prostaglandin E2 produced as a result of inflammatory conditions initiated in each test condition. […] Although, acetylsalicylic acid is typically administered in doses greater than these measured, this dosage increased the inflammatory response.
(§4) MatTek (tracheal bronchial tissue) or MucilAir (nasal polyps) 3D inserts were placed in pre-warmed media corresponding to each cell system and incubated for 15 minutes at 37° C. […] TEER was measured again at 48 hours. […]

[2] = system: 3D model of human airway epithelium; experiment: IL-8 ELISA on basal medium of bradykinin-stimulated 3D airway epithelia (MucilAir, MatTek); format: cell-based; details: increasing bradykinin concentrations, MatTek and MucilAir ex-vivo models (FIGS. 6, 7)
Experimental: as §1, §2, §3, §4

## NC(N)=NCCC[C@H](NC(=O)[C@H](Cc1ccccc1)NC(=O)[C@@H]1CCCN1C(=O)[C@H](CO)NC(=O)[C@H](Cc1ccccc1)NC(=O)CNC(=O)[C@@H]1CCCN1C(=O)[C@@H]1CCCN1C(=O)[C@@H](N)CCCN=C(N)N)C(=O)O [bradykinin] (H-RPPGFSPFR-OH)
[1]
  stimulation of PGE2: reaches a saturation point
[2]
  stimulation of IL-8: reaches a saturation point
